In paper PMC3722104:
These are yes or no findings as the source states them, for the method shown. Binding seen in cells or lysates may run through a third protein. Some binding calls cover weakened binding; strength is not graded here.

Chains of the proteins cited; added tags and fusions are not shown. Residues count along the entry.
UniProt Q91ZX7, residues 20-4545: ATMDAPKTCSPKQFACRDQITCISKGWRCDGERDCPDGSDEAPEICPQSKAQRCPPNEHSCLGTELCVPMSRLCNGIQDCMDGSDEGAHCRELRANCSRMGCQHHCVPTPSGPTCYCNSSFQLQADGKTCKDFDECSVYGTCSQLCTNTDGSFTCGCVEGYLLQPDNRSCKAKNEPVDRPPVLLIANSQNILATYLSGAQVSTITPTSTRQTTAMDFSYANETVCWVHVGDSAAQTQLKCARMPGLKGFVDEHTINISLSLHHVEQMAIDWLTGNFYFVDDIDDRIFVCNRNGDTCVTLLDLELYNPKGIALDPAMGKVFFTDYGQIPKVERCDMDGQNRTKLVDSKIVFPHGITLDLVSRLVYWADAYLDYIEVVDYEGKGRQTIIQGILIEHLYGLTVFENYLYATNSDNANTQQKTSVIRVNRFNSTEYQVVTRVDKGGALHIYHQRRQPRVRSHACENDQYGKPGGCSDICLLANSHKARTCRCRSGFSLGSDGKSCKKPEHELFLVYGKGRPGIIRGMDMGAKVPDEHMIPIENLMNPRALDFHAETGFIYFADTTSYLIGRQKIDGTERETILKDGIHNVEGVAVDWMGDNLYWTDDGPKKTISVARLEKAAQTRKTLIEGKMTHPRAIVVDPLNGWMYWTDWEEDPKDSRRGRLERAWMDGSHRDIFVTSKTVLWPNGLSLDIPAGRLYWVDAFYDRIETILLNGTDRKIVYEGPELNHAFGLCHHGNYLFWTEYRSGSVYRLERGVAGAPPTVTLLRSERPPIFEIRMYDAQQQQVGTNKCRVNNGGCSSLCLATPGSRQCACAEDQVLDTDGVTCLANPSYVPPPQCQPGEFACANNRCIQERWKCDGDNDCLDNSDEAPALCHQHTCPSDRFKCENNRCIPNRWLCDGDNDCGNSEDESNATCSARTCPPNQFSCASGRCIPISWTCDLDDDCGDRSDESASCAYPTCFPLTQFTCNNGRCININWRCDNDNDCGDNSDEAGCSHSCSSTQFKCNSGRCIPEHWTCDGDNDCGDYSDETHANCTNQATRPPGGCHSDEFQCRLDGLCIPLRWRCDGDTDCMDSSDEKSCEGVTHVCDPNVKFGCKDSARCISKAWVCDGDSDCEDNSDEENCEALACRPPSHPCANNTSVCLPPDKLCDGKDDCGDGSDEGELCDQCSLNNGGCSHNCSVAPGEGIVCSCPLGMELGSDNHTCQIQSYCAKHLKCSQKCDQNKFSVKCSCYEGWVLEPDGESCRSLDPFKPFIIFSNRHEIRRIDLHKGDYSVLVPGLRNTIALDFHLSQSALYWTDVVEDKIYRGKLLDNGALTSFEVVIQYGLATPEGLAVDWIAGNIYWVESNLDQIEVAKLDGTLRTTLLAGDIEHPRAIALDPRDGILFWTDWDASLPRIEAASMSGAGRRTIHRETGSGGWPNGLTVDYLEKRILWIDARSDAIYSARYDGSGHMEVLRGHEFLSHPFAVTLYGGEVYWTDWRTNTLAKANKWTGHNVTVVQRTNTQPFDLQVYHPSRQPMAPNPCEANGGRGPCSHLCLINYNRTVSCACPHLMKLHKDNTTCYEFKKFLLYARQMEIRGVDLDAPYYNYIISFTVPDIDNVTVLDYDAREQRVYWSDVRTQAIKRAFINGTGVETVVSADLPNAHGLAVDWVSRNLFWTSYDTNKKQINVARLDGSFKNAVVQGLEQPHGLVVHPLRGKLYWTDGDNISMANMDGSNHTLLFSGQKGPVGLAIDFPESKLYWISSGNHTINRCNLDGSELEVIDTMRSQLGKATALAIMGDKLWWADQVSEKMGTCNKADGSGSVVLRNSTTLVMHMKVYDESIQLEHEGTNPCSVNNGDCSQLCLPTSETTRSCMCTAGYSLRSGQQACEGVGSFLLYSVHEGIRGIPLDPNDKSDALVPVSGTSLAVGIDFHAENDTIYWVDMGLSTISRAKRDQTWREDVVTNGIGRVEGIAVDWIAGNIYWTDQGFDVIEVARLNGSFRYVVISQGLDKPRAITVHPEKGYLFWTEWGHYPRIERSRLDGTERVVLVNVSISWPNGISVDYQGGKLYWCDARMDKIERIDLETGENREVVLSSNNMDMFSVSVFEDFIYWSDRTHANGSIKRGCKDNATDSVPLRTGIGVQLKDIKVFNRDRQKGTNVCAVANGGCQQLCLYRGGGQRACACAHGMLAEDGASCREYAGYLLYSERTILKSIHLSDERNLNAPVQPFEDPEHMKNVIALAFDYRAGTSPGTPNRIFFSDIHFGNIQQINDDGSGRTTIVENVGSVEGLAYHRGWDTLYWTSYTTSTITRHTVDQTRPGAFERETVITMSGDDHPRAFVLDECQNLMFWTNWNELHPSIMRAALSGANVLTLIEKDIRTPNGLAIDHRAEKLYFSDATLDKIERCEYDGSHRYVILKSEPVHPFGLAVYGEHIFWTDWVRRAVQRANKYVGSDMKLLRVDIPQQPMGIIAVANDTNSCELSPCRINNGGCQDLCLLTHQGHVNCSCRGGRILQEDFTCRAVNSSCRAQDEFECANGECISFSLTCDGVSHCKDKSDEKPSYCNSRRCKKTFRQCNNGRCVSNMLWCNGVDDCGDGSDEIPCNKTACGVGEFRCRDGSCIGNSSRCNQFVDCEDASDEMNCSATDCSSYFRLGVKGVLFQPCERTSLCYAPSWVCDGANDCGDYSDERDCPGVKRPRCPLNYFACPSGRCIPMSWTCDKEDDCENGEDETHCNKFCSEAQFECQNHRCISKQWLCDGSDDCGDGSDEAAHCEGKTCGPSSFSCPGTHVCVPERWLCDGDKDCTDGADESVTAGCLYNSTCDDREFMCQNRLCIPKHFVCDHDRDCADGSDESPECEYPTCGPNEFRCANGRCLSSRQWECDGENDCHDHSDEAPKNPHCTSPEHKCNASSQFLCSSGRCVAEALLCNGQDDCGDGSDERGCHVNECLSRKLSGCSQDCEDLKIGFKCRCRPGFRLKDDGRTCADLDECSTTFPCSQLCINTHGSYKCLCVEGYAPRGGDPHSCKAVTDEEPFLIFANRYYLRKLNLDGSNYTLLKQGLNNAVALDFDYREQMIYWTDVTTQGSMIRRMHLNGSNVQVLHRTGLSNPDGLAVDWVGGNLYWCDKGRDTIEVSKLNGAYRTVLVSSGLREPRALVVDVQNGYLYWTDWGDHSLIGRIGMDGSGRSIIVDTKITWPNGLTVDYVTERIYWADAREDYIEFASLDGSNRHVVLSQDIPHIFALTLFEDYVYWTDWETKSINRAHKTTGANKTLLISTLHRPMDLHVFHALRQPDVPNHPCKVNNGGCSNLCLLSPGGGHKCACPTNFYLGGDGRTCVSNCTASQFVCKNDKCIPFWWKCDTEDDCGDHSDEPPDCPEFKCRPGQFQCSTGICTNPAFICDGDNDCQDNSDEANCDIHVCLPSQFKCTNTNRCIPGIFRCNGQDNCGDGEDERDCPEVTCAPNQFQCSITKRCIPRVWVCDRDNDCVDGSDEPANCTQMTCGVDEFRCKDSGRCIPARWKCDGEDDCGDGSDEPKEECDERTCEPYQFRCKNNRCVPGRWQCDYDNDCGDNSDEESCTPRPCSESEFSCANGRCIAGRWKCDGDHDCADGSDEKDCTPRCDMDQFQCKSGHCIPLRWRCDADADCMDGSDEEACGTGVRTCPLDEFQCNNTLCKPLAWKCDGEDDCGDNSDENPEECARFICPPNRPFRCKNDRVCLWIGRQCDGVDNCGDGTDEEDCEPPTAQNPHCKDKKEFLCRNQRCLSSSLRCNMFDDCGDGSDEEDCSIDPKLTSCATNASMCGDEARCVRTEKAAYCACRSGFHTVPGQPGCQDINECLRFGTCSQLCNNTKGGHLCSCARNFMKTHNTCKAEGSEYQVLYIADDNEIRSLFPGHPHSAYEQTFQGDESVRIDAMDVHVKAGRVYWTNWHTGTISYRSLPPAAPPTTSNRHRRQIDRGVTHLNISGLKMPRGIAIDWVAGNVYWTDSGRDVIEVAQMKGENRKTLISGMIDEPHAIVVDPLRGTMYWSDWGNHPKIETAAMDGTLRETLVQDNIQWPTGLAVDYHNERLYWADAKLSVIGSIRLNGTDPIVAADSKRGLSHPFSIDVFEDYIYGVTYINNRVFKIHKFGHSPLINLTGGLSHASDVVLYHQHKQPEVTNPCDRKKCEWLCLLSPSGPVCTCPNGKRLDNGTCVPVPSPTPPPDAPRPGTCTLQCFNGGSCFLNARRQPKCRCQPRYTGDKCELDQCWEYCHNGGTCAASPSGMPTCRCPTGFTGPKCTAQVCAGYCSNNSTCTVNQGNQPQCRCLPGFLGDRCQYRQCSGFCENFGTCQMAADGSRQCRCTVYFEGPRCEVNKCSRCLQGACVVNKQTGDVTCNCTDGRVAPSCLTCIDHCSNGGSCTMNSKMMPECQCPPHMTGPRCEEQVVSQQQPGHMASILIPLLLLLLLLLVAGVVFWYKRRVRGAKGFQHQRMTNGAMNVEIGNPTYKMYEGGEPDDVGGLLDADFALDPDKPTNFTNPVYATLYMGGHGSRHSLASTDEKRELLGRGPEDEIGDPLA
UniProt Q01097, residues 27-1482: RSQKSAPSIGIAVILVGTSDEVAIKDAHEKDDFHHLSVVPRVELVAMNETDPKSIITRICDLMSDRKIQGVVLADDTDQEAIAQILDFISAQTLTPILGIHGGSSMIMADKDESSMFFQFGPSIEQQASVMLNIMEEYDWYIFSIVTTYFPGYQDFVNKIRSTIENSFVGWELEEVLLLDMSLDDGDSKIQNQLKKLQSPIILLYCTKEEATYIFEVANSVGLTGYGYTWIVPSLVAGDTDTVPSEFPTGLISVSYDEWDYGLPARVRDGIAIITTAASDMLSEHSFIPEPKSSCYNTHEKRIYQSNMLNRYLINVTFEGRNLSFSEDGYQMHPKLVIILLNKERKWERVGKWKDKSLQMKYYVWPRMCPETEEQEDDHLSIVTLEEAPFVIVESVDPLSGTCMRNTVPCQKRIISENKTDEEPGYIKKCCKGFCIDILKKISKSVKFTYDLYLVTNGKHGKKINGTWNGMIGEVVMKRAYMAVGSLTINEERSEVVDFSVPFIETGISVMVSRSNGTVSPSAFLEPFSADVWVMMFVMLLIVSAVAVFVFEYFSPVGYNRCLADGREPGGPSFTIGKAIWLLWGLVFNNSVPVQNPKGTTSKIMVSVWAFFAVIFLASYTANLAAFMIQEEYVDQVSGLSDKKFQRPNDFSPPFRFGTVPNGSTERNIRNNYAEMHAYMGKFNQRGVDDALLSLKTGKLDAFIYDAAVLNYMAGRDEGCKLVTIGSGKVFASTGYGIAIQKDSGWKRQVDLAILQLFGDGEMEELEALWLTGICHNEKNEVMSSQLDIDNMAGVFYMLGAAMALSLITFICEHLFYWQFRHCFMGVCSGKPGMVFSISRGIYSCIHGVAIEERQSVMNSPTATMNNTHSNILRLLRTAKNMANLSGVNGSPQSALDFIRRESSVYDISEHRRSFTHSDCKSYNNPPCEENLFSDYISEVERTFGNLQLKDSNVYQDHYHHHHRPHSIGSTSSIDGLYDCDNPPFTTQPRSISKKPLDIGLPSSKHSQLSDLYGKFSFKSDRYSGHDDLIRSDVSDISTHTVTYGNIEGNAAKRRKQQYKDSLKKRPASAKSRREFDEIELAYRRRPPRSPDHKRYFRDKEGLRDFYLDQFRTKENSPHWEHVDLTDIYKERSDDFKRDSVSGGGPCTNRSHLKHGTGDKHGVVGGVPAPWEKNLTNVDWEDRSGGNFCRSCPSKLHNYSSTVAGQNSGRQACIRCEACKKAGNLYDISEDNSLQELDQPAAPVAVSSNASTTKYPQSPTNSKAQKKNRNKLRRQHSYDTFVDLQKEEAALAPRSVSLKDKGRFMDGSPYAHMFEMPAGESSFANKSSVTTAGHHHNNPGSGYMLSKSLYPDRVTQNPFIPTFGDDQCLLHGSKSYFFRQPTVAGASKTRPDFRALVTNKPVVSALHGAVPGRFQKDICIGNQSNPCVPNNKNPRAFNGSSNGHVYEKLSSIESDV

How the values were obtained:
[1] = target: Low density lipoprotein receptor-related protein 1 (LRP1), wild type (mouse (endogenous in primary cortical neurons)) (UniProt Q91ZX7); assay: co-IP; lysates of primary cortical neurons (WT or LRP1ΔNPxY2) in RIPA buffer with protease and phosphatase inhibitors; equal amounts of total lysate (80 µg) precipitated with polyclonal LRP1 antibody 1704 and protein G sepharose at 4°C overnight; Western blot for NR1, NR2B or PSD95
[2] = target: Low density lipoprotein receptor-related protein 1 (LRP1), wild type (mouse (endogenous in primary cortical neurons)) (UniProt Q91ZX7); assay: condition: only lysate treated with calf intestinal phosphatase (CIP, 10 units/μg protein, 30 minutes at 37°C); co-IP; neuronal lysates in RIPA buffer with protease inhibitors, 100 µg protein treated with 1000 units calf intestinal phosphatase (CIP) in phosphatase buffer (50 mM Tris-HCl, 100 mM NaCl, 10 mM MgCl2, 1 mM DTT, pH 7.9) at 37°C for 30 min before immunoprecipitation of LRP1 and Western blot

**Q.** Which results are given for “NMDA receptor subunit 2B (NR2B) (from UniProt Q01097 27-1482)”?
**A.** binding [1]: binds; binding [2]: no binding
